These results are taken from paper PMC13140326.

No constants are given. Whether binding was seen depends on the method and setting. In cells and extracts the contact can be indirect. For some assays here: A result given as binding can be weak or reduced; the word gives no strength. Tags and fused reporters may be left off the sequences shown.

Assay [1] addresses ZmSnRK2.10 in the pRTVcVN vector (BiFC fusion) (maize). Nature of the assay: split reporter; BiFC in maize leaf protoplasts; ZmSnRK2.8/2.10 in pRTVcVN, partners in pRTVcVC; 5 ug of each plasmid; YFP signal after 24 h in the dark.
For assay [2], the target named is ZmSnRK2.8 in the pRTVcVN vector (BiFC fusion) (maize). The assay is described as above.
Assay [3] deals with ZmSnRK2.8 in the pCAMBIA1300-nLuc vector (LCI fusion) (maize). In words: split reporter; luciferase complementation imaging (LCI) in N. benthamiana leaves; ZmSnRK2.8/2.10 in pCAMBIA1300-nLuc, partners in pCAMBIA1300-cLuc; imaged after 2 days.
In assay [4] the target is ZmSnRK2.10 in the pCAMBIA1300-nLuc vector (LCI fusion) (maize). The assay is described as above.

B1: Opaque 2 (O2) in the pRTVcVC vector (BiFC fusion) (protein, UniProt P12959 1-453)
chain: MEHVISMEEILGPFWELLPPPAPEPEREQPPVTGIVVGSVIDVAAAGHGDGDMMDQQHATEWTFERLLEEEALTTSTPPPVVVVPNSCCSGALNADRPPVMEEAVTMAPAAVSSAVVGDPMEYNAILRRKLEEDLEAFKMWRADSSVVTSDQRSQGSNNHTGGSSIRNNPVQNKLMNGEDPINNNHAQTAGLGVRLATSSSSRDPSPSDEDMDGEVEILGFKMPTEERVRKKESNRESARRSRYRKAAHLKELEDQVAQLKAENSCLLRRIAALNQKYNDANVDNRVLRADMETLRAKVKMGEDSLKRVIEMSSSVPSSMPISAPTPSSDAPVPPPPIRDSIVGYFSATAADDDASVGNGFLRLQAHQEPASMVVGGTLSATEMNRVAAATHCAGAMELIQTAMGSMPPTSASGSTPPPQIMSCWVQMGPYTWTCIRHCGFRDRWEHFICRRR
With B1, the binding entry in assay [1] and in assay [2] was “no binding” each time.

B2: Opaque 2 (O2) in the pCAMBIA1300-cLuc vector (LCI fusion) (protein, UniProt P12959 1-453)
chain: MEHVISMEEILGPFWELLPPPAPEPEREQPPVTGIVVGSVIDVAAAGHGDGDMMDQQHATEWTFERLLEEEALTTSTPPPVVVVPNSCCSGALNADRPPVMEEAVTMAPAAVSSAVVGDPMEYNAILRRKLEEDLEAFKMWRADSSVVTSDQRSQGSNNHTGGSSIRNNPVQNKLMNGEDPINNNHAQTAGLGVRLATSSSSRDPSPSDEDMDGEVEILGFKMPTEERVRKKESNRESARRSRYRKAAHLKELEDQVAQLKAENSCLLRRIAALNQKYNDANVDNRVLRADMETLRAKVKMGEDSLKRVIEMSSSVPSSMPISAPTPSSDAPVPPPPIRDSIVGYFSATAADDDASVGNGFLRLQAHQEPASMVVGGTLSATEMNRVAAATHCAGAMELIQTAMGSMPPTSASGSTPPPQIMSCWVQMGPYTWTCIRHCGFRDRWEHFICRRR
Take B2: the binding entry in assay [3] and in assay [4] was “no binding” each time.

B3: PPDK2 in the pRTVcVC vector (BiFC fusion) (enzyme, UniProt Q42368 1-883)
chain: MAPAPCGRSSQRVFHFGKGKSEGNKNMKELLGGKGANLAEMASIGLSVPPGFTVSTEACQQYQEAGRALPPGLWAEVLDGLRWVEEYMGAALGDPRRPLLLSVRSGAAVSMPGMMDTVLNLGLNDQVAAGLAAKSGDRFAYDSFRRFLDMFGNVVMDIPHALFEEKLEAMKKAKGLKNDTDLTATDLKELVSQYKNVYVEAKGEPFPSDPKRQLELAVLAVFDSWESPRAKKYRSINQITGLRGTAVNVQCMVFGNMGNTSGTGVLFTRNPNTGEKKLYGEFLVNAQGEDVVAGIRTPEDLDAMKDVMPQAYKELVENCRILESHYKEMQDIEFTVQESRLWMLQCRTGKRTGKSAVKIAVDMVNEGLVERRAAIKMVEPGHLDQLLHPQFENPSAYKDQVIATGLPASPGAAVGQVVFTAEDAETWHSQGKSVILVRAETSPEDVGGMHAAAGILTERGGMTSHAAVVARGWGKCCVSGCSGIRVNDAEKVVKIGGNVLREGEWLSLNGSTGEVILGKQPLSPPALSGDLGTFMSWVDDVRKLKVLANADTPEDALAARNNGAEGIGLCRTEHMFFASDERIKAVRQMIMAPTVELRQQALDRLLPYQRSDFEGIFRAMDGLSVTIRLLDPPLHEFLPEGNVEEIVRELCSETGANQEDALARIEKLSEVNPMLGFRGCRLGISYPELTEMQARAIFEAAIAMTNQGVQVFPEIMVPLVGTPQELGHQVALIRQVANKVFTSMGKTIGYKIGTMIEIPRAALVADEIAEQAEFFSFGTNDLTQMTFGYSRDDVGKFIPIYLAQGILQHDPFEVLDQRGVGELVKLATERGRKARPNLKVGICGEHGGEPSSVAFFAKTGLDYVSCSPFRVPIARLAAAQVLV
For B3, the binding result in assay [1] was “binds”.

B4: PPDK2 in the pCAMBIA1300-cLuc vector (LCI fusion) (enzyme, UniProt Q42368 1-883)
chain: MAPAPCGRSSQRVFHFGKGKSEGNKNMKELLGGKGANLAEMASIGLSVPPGFTVSTEACQQYQEAGRALPPGLWAEVLDGLRWVEEYMGAALGDPRRPLLLSVRSGAAVSMPGMMDTVLNLGLNDQVAAGLAAKSGDRFAYDSFRRFLDMFGNVVMDIPHALFEEKLEAMKKAKGLKNDTDLTATDLKELVSQYKNVYVEAKGEPFPSDPKRQLELAVLAVFDSWESPRAKKYRSINQITGLRGTAVNVQCMVFGNMGNTSGTGVLFTRNPNTGEKKLYGEFLVNAQGEDVVAGIRTPEDLDAMKDVMPQAYKELVENCRILESHYKEMQDIEFTVQESRLWMLQCRTGKRTGKSAVKIAVDMVNEGLVERRAAIKMVEPGHLDQLLHPQFENPSAYKDQVIATGLPASPGAAVGQVVFTAEDAETWHSQGKSVILVRAETSPEDVGGMHAAAGILTERGGMTSHAAVVARGWGKCCVSGCSGIRVNDAEKVVKIGGNVLREGEWLSLNGSTGEVILGKQPLSPPALSGDLGTFMSWVDDVRKLKVLANADTPEDALAARNNGAEGIGLCRTEHMFFASDERIKAVRQMIMAPTVELRQQALDRLLPYQRSDFEGIFRAMDGLSVTIRLLDPPLHEFLPEGNVEEIVRELCSETGANQEDALARIEKLSEVNPMLGFRGCRLGISYPELTEMQARAIFEAAIAMTNQGVQVFPEIMVPLVGTPQELGHQVALIRQVANKVFTSMGKTIGYKIGTMIEIPRAALVADEIAEQAEFFSFGTNDLTQMTFGYSRDDVGKFIPIYLAQGILQHDPFEVLDQRGVGELVKLATERGRKARPNLKVGICGEHGGEPSSVAFFAKTGLDYVSCSPFRVPIARLAAAQVLV
Consider B4, for which, in assay [4], the binding result is given as “binds”.

B5: GBSSI in the pRTVcVC vector (BiFC fusion) (enzyme, UniProt P04713 73-605)
chain: ASAGMNVVFVGAEMAPWSKTGGLGDVLGGLPPAMAANGHRVMVVSPRYDQYKDAWDTSVVSEIKMGDGYETVRFFHCYKRGVDRVFVDHPLFLERVWGKTEEKIYGPVAGTDYRDNQLRFSLLCQAALEAPRILSLNNNPYFSGPYGEDVVFVCNDWHTGPLSCYLKSNYQSHGIYRDAKTAFCIHNISYQGRFAFSDYPELNLPERFKSSFDFIDGYEKPVEGRKINWMKAGILEADRVLTVSPYYAEELISGIARGCELDNIMRLTGITGIVNGMDVSEWDPSRDKYIAVKYDVSTAVEAKALNKEALQAEVGLPVDRNIPLVAFIGRLEEQKGPDVMAAAIPQLMEMVEDVQIVLLGTGKKKFERMLMSAEEKFPGKVRAVVKFNAALAHHIMAGADVLAVTSRFEPCGLIQLQGMRYGTPCACASTGGLVDTIIEGKTGFHMGRLSVDCNVVEPADVKKVATTLQRAIKVVGTPAYEEMVRNCMIQDLSWKGPAKNWENVLLSLGVAGGEPGVEGEEIAPLAKENVAAP
On to B5, for which the binding entry in assay [1] is recorded as “binds”.

B6: GBSSI in the pCAMBIA1300-cLuc vector (LCI fusion) (enzyme, UniProt P04713 73-605)
chain: ASAGMNVVFVGAEMAPWSKTGGLGDVLGGLPPAMAANGHRVMVVSPRYDQYKDAWDTSVVSEIKMGDGYETVRFFHCYKRGVDRVFVDHPLFLERVWGKTEEKIYGPVAGTDYRDNQLRFSLLCQAALEAPRILSLNNNPYFSGPYGEDVVFVCNDWHTGPLSCYLKSNYQSHGIYRDAKTAFCIHNISYQGRFAFSDYPELNLPERFKSSFDFIDGYEKPVEGRKINWMKAGILEADRVLTVSPYYAEELISGIARGCELDNIMRLTGITGIVNGMDVSEWDPSRDKYIAVKYDVSTAVEAKALNKEALQAEVGLPVDRNIPLVAFIGRLEEQKGPDVMAAAIPQLMEMVEDVQIVLLGTGKKKFERMLMSAEEKFPGKVRAVVKFNAALAHHIMAGADVLAVTSRFEPCGLIQLQGMRYGTPCACASTGGLVDTIIEGKTGFHMGRLSVDCNVVEPADVKKVATTLQRAIKVVGTPAYEEMVRNCMIQDLSWKGPAKNWENVLLSLGVAGGEPGVEGEEIAPLAKENVAAP
On to B6, for which the binding result in assay [4] is “binds”.
